Some of the results follow. Small differences around the control level are noise.

Protein sequences, listed by entry. Tags and fused reporters are not part of them. Lines headed by an entry give the natural chain unless they say otherwise; changes in a name come on top.
UniProt O35601: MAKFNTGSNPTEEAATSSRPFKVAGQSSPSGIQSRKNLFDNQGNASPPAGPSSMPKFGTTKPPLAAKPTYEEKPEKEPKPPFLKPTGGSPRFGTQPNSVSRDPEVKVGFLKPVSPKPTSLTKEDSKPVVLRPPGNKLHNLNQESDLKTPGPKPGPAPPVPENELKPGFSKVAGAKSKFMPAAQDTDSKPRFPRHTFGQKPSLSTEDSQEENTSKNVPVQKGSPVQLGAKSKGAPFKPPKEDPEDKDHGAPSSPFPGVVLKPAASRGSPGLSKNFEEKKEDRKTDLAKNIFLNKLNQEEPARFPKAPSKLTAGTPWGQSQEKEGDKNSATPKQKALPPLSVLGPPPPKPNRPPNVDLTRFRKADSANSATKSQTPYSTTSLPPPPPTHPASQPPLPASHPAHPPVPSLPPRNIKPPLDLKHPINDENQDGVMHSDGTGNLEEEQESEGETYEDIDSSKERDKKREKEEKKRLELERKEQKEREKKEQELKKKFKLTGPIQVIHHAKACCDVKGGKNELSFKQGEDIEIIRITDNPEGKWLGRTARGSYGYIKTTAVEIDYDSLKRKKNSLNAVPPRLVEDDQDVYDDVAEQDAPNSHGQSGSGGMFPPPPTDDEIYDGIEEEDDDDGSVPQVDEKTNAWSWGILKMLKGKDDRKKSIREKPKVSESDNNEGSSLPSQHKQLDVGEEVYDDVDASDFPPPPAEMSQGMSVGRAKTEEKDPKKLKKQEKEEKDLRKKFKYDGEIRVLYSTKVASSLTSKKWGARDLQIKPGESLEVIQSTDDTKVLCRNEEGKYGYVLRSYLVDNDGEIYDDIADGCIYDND
UniProt O88520: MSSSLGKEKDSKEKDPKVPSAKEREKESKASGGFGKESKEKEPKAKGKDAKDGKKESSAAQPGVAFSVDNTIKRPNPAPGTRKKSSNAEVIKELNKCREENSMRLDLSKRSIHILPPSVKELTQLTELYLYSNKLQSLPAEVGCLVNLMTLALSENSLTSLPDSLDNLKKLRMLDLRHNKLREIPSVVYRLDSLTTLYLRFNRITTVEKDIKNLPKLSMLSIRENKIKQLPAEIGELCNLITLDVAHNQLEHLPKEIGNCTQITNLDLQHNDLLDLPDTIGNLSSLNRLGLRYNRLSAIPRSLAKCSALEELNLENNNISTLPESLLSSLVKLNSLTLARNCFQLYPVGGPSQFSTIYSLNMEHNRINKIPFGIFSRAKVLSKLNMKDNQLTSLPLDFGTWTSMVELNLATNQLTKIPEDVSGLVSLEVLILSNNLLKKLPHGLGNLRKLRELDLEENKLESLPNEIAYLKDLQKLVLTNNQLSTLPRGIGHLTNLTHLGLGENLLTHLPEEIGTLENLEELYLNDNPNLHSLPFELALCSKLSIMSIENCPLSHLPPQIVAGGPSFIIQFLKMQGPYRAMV
UniProt O35071: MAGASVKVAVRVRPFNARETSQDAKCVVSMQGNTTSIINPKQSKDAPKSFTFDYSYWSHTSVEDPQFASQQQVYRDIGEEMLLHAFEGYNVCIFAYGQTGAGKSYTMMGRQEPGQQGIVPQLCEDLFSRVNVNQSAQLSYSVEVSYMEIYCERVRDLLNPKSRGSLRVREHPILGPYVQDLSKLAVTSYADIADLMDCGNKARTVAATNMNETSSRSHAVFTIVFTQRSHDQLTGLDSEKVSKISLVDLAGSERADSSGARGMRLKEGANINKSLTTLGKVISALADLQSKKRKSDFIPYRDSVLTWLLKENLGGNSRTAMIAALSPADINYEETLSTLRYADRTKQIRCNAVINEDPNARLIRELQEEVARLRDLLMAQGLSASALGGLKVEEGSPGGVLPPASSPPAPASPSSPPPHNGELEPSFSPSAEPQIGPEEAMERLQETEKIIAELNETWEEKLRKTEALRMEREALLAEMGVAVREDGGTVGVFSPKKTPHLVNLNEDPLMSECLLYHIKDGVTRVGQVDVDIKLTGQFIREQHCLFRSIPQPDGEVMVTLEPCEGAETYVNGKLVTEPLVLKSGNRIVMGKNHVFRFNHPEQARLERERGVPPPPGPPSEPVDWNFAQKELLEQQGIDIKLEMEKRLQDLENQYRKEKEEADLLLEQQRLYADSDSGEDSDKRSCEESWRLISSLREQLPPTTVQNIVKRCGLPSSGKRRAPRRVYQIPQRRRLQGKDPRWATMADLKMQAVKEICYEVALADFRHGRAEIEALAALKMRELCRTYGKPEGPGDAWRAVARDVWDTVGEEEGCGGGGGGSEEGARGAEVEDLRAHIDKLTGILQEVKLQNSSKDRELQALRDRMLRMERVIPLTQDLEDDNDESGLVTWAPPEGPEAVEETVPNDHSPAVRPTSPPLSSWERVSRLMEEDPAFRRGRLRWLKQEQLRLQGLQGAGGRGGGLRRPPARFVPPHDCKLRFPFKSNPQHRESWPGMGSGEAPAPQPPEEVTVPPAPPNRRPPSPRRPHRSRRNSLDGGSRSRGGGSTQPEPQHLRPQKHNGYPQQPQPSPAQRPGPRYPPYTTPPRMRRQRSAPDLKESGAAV
UniProt P01631, whole entry: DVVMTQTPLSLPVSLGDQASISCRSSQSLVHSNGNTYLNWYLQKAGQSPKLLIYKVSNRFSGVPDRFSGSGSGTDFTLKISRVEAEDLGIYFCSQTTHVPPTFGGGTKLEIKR
UniProt O88746, whole entry: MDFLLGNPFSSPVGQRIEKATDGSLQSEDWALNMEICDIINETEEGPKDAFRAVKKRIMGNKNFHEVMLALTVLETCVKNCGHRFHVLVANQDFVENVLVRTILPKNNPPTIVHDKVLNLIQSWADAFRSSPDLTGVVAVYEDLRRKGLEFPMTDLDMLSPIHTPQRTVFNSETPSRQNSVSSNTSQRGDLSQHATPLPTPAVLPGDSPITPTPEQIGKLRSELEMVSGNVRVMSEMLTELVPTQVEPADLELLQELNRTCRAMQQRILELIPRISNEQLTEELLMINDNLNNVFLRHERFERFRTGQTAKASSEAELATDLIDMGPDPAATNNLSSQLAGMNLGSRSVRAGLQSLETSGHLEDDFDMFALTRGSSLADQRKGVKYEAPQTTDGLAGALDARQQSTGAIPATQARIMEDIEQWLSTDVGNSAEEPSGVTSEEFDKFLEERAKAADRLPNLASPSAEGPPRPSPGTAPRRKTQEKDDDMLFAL
UniProt O35737: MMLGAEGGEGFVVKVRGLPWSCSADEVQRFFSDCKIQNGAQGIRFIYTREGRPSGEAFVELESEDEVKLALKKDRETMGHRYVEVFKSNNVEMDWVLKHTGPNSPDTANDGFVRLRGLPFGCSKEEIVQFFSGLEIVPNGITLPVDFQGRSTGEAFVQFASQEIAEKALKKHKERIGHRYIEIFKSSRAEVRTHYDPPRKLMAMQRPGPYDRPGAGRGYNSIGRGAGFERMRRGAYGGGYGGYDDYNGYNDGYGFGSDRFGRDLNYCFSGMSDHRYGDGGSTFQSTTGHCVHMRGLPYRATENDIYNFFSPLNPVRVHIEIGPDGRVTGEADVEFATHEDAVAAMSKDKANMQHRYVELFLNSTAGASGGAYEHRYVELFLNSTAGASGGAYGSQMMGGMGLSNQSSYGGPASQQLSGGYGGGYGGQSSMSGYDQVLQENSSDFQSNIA
UniProt O88543: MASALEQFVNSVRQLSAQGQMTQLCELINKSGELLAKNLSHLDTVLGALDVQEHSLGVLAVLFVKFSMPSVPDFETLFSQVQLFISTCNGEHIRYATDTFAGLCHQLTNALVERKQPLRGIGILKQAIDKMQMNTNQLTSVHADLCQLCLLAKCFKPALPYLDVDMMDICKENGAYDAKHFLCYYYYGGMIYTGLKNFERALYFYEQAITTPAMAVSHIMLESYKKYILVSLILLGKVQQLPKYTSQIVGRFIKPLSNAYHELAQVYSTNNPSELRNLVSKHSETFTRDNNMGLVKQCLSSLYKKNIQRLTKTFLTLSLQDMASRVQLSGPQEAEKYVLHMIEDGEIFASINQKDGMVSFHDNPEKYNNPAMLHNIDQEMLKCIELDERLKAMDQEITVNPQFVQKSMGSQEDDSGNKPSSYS
UniProt P01029: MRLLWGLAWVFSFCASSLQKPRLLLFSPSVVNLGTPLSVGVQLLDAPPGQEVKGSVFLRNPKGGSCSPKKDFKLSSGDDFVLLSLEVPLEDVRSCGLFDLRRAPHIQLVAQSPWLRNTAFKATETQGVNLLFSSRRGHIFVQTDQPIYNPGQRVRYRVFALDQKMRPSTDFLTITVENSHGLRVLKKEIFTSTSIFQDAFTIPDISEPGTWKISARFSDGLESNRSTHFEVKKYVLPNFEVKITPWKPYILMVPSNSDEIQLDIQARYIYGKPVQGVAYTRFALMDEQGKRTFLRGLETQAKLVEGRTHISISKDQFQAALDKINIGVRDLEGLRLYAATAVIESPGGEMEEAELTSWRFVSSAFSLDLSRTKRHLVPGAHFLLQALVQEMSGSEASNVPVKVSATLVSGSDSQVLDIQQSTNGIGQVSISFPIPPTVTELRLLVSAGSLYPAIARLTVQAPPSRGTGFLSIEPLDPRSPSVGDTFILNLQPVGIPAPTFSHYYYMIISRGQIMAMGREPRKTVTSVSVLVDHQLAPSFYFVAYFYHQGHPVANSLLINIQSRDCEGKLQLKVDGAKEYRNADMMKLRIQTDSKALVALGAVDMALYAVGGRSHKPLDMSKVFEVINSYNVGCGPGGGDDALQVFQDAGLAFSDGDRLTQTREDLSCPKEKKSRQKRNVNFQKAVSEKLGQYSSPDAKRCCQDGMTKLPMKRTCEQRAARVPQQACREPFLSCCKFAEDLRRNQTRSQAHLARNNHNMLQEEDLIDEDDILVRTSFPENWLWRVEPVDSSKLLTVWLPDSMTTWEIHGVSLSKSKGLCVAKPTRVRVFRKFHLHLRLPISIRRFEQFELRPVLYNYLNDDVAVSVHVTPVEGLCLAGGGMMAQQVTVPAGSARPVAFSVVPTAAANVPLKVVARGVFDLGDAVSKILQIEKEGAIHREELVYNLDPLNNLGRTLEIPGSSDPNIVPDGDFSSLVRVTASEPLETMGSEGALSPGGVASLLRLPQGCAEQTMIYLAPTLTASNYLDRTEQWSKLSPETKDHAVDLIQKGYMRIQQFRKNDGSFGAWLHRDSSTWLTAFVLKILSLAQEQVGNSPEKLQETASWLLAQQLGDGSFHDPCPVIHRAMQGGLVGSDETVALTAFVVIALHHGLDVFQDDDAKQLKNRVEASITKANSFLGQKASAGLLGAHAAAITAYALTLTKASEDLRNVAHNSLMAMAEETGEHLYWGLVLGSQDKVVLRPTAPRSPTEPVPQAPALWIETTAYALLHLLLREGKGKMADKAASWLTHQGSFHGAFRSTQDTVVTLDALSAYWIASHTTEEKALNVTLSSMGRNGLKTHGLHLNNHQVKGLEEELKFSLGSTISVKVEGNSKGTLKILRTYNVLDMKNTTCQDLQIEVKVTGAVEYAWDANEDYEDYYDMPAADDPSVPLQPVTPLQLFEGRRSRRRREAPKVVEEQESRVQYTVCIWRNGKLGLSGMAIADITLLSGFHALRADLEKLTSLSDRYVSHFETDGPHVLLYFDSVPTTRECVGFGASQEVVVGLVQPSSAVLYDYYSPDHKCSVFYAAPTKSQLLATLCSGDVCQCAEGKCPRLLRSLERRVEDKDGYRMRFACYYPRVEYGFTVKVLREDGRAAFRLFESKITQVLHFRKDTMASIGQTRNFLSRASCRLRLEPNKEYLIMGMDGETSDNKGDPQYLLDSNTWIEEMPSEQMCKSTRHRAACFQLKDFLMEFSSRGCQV
UniProt O35114: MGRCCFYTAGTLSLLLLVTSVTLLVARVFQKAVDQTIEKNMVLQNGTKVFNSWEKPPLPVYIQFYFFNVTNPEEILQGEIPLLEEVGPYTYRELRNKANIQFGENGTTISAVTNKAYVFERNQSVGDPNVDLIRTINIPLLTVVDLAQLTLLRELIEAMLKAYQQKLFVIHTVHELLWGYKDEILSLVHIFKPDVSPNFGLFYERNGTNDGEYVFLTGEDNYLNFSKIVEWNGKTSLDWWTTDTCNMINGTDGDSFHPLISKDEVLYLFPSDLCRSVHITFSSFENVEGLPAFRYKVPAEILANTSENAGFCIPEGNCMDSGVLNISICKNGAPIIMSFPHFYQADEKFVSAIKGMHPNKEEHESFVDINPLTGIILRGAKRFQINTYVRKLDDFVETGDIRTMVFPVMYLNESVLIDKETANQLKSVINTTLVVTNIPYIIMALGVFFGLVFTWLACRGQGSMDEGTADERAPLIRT
UniProt O35685: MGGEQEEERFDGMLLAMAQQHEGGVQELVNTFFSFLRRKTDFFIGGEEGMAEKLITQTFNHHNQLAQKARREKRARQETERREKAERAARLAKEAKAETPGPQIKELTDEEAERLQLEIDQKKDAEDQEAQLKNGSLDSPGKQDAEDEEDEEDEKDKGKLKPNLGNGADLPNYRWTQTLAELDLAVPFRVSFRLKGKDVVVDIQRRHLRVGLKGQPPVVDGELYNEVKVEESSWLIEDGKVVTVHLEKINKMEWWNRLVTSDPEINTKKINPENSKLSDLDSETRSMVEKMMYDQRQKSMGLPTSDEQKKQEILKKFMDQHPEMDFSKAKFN

Compound in the experiment: CN[C@@H]1C[C@H]2O[C@@](C)([C@@H]1OC)n1c3ccccc3c3c4c(c5c6ccccc6n2c5c31)C(=O)NC4 [staurosporine]
Nature of the experiment: log2 fold change of pooled soluble protein (PISA), ligand vs vehicle (log2 ratio); higher = more thermally stabilized. To be noted: ligand concentration: 20 uM; assay format: PISA pool 52.9/55.5/58.6 C.
Take UniProt O35601: the “log2 fold change of pooled soluble protein” value (“log2 fold change” for short) is -0.0501.
With UniProt O70433, the “log2 fold change” value came out at 0.0273.
Then UniProt O35343, with -0.154; and UniProt O88520, with -0.00787; and UniProt O88895, with -0.294.
Then UniProt O70503, with -0.027; and UniProt O08539, with 0.0265; and UniProt O55126, with -0.107.
Regarding UniProt O55239, the “log2 fold change” value stood at 0.328.
Take UniProt P00375: the “log2 fold change” value is -0.0471.
As for UniProt O35604, the “log2 fold change” value was found to be 0.0432.
As for UniProt O70451, the “log2 fold change” value was 0.131.
As to UniProt O35566, the “log2 fold change” value is -0.188.
As to UniProt O35071, the “log2 fold change” value was -0.144.
UniProt O88533: the “log2 fold change” value was -0.554.
Then UniProt P01631, with -0.21; and UniProt O88746, with 0.0415; and UniProt O88958, with 0.0519.
Take UniProt O55111: the “log2 fold change” value was -0.0388.
Then UniProt O55176, with -0.122; and P01868;P01869, with -0.377.
In the case of UniProt O35737, the “log2 fold change” value is -0.0749.
Then UniProt O35405, with -0.112.
With UniProt O35930, the “log2 fold change” value is -0.102.
With UniProt O88543, the “log2 fold change” value was -0.0614.
Then UniProt O08715, with -0.0588; and UniProt P01029, with -0.00278; and P01806;P01807;P01808;P01809;P01812, with 0.102.
With UniProt O89103, the “log2 fold change” value turned out to be 0.148.
As for UniProt O35114, the “log2 fold change” value was 0.0373.
The same measure for UniProt O08529: -0.104.
For the target UniProt O35639, the “log2 fold change” value was determined as 0.169.
Then UniProt O35685, with 0.042.
For UniProt O89017, the “log2 fold change” value is -0.0054.
The same measure for UniProt O70305: 0.0191; for UniProt O70456: 0.0719.

The values are drawn from the supplement of paper PMC12819154, “High-throughput peptide-centric local stability assay extends protein–ligand identification to membrane proteins, tissues and bacteria” (Nature Structural & Molecular Biology, 2025).
